The text below walks through data of patent publication US20020035243A1 (priority 1998, published 2002).

* marks the point of attachment. Boc = CC(C)(C)OC(=O)*; OtBu = CC(C)(C)O*

Series [1] is described as follows: general procedure: peptide synthesis; H-Asp-chlorotrityl resin; H-Leu-chlorotrityl resin; aminomethyl resin with Fmoc-4-methoxy-4'-(carboxypropoxy)benzhydryla; TBTU/collidine. The following applies: for conjugation yield: conjugation step.
The nature of series [2]: general procedure: peptide synthesis; H-Asp-chlorotrityl resin; TBTU/collidine. The following applies: whole synthesis, scale 9.8 mmol.
Series [3] in a line: general procedure: peptide synthesis; H-Leu-chlorotrityl resin; TBTU/collidine. Particulars: whole synthesis, scale 15 mmol.
A short description of series [4]: general procedure: peptide synthesis; aminomethyl resin with benzhydrylamine linker; TBTU/collidine. The following applies: whole synthesis, scale 9.0 mmol.

Regarding “H-Glu-Asp-Tyr-His-Ser-Leu-Tyr-Asn-Ser-His-Leu-Lys(ε-D,L-6,8-dithiooctanamide)-NH—CH2CH2—NH-octanylamide (EDYHSLYNSHLK; dithiooctanoyl lysine; ethylenediamine-octanoylamide; printed: Glu-Asp-Tyr-His-Ser-Leu-Tyr-Asn-Ser-His-Leu-Lys)”, the conjugation yield in series [1] was 20%. The same measure, in the same setting: next, “Ac-Leu-Gly-Asp[NH(CH2)5—NH—CO-biotin]-Lys(ε-D,L-6,8-dithio-octanamide)-NH—CH2CH2—NH-octanoylamide”: 50%. In series [2], “Ac-Glu(OtBu)-Glu(OtBu)-Glu(OtBu)-Asp(OtBu)-OH” came in with an isolated mass of 6.02 g and an isolated yield of 70%.

Take “H-Lys(ε-Asp-Glu-Glu-Glu-Ac)-NH—CH2CH2—NH—C═O—(CH2)14—CH3”: in series [1] (coupling step), the step yield worked out at 75%. In series [3], “Fmoc-Glu(t-but)-Asp(t-but)-Tyr(t-but)-His(Boc)-Ser(t-but)-Leu-Tyr(t-but)-Asn(Trt)-Ser(t-but)-His(Boc)-Leu-OH” displayed an isolated mass of 5.3 g and an isolated yield of 13%.

In turn, “(Ac-Glu-Glu-Glu-Asp-Lys(ε-6,8-dimercaptooctanamide)-NH—CH2—CH2—NH—C═O—(CH2)6—CH3)” came in with a step yield in series [1] (late stage modification step) of 49%. “D,L-6,8-Dithiooctanoylamide-Lys(ε-Asp-Glu-Glu-Glu-Ac)-NH—CH2CH2—NH—C═O—(CH2)14—CH3” gave a conjugation yield in series [1] of 50%. In the case of “Ac-E(OtBu)E(OtBu)E(OtBu)D(OtBu)K(Boc)-NH2”, in series [4], the isolated mass was 3.97 g and the isolated yield was determined as 64.9%.

In turn, “Ac-Glu-Glu-Glu-Asp-Lys(ε-D,L-6,8-dithiooctanoylamide)-NH2 (EEEDK; N-acetyl; dithiooctanoyl lysine; C-terminal amide; printed: Glu-Glu-Glu-Asp-Lys)” displayed a conjugation yield in series [1] of 37.7%.

Take “Ac-Glu-Glu-Glu-Asp-Lys(ε-D,L-6,8-dithiooctanoylamide)-NH—CH2—CH2—NH—C═O—(CH2)6—CH3 (EEEDK; N-acetyl; dithiooctanoyl lysine; ethylenediamine-octanoylamide; printed: Glu-Glu-Glu-Asp-Lys)”: the conjugation yield in series [1] is on record as 57.6%.
